In the supplement of paper PMC4604168 (melanoma cell lines):
The list shows a part of the results. Single values are uncertain, as repeats are few or missing.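 The apoptosis fraction was the count of cleaved-PARP antibody-stained nuclei relative to all DNA-stained nuclei, imaged in 1,536-well plates. Screening doses were set so most cells survived, and baseline and induced cleaved-PARP levels vary greatly across cell lines.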

Legend:
Experiment in all cases: cleaved PARP positive nuclei fraction relative to DMSO control; melanoma cells; higher = more apoptosis
Details in all cases: library dose: low library concentration; 72 h
COLO792 = tested on: COLO792
COLO800 = tested on: COLO800
COLO829 = tested on: COLO829
G361 = tested on: G361
IPC-298 = tested on: IPC-298
IST-MEL1 = tested on: IST-MEL1
LB2518-MEL = tested on: LB2518-MEL
LOXIMVI = tested on: LOXIMVI

Cn1cc(C2=C(c3cn(C4CCN(Cc5ccccn5)CC4)c4ccccc34)C(=O)NC2=O)c2ccccc21 [Enzastaurin] + Oc1cc(-c2nc(-c3ccccc3)[nH]c2-c2ccncc2)ccc1Cl [L779450] (first compound 0.8 µM, partner dose 0.2 µM)
cleaved PARP positive nuclei fraction (COLO792): 103%
cleaved PARP positive nuclei fraction (COLO800): 27.3%
cleaved PARP positive nuclei fraction (COLO829): 73.6%
cleaved PARP positive nuclei fraction (G361): 110%
cleaved PARP positive nuclei fraction (IPC-298): 98.2%
cleaved PARP positive nuclei fraction (IST-MEL1): 177%
cleaved PARP positive nuclei fraction (LB2518-MEL): 70.7%
cleaved PARP positive nuclei fraction (LOXIMVI): 20%

Cc1cc(Nc2cc(N3CCN(C)CC3)nc(/C=C/c3ccccc3)n2)n[nH]1 + O=C(Oc1ccc([N+](=O)[O-])cc1)N1CCC(C(O)(c2ccc3c(c2)OCO3)c2ccc3c(c2)OCO3)CC1 [JZL184] (first compound 0.04 µM, partner dose 1 µM)
cleaved PARP positive nuclei fraction (COLO792): 104%
cleaved PARP positive nuclei fraction (COLO800): 23.9%
cleaved PARP positive nuclei fraction (COLO829): 76.1%
cleaved PARP positive nuclei fraction (G361): 129%
cleaved PARP positive nuclei fraction (IPC-298): 87.7%
cleaved PARP positive nuclei fraction (IST-MEL1): 53.6%
cleaved PARP positive nuclei fraction (LB2518-MEL): 62.3%
cleaved PARP positive nuclei fraction (LOXIMVI): 163%

Cn1cc(C2=C(c3cn(C4CCN(Cc5ccccn5)CC4)c4ccccc34)C(=O)NC2=O)c2ccccc21 [Enzastaurin] + CCc1ccc(CCOc2ccc(CC3SC(=O)NC3=O)cc2)nc1 [pioglitazone] (first compound 0.8 µM, partner dose 2 µM)
cleaved PARP positive nuclei fraction (COLO792): 101%
cleaved PARP positive nuclei fraction (COLO800): 174%
cleaved PARP positive nuclei fraction (COLO829): 147%
cleaved PARP positive nuclei fraction (G361): 104%
cleaved PARP positive nuclei fraction (IPC-298): 131%
cleaved PARP positive nuclei fraction (IST-MEL1): 67.6%
cleaved PARP positive nuclei fraction (LB2518-MEL): 258%
cleaved PARP positive nuclei fraction (LOXIMVI): 27.5%

Cn1cc(C2=C(c3cn(C4CCN(Cc5ccccn5)CC4)c4ccccc34)C(=O)NC2=O)c2ccccc21 [Enzastaurin] + O=S(=O)(c1ccccc1)N(CC(F)(F)F)c1ccc(C(O)(C(F)(F)F)C(F)(F)F)cc1 [T0901317] (first compound 0.8 µM, partner dose 1.4 µM)
cleaved PARP positive nuclei fraction (COLO792): 72.7%
cleaved PARP positive nuclei fraction (COLO800): 94.3%
cleaved PARP positive nuclei fraction (COLO829): 140%
cleaved PARP positive nuclei fraction (G361): 184%
cleaved PARP positive nuclei fraction (IPC-298): 131%
cleaved PARP positive nuclei fraction (IST-MEL1): 63.2%
cleaved PARP positive nuclei fraction (LB2518-MEL): 96.1%
cleaved PARP positive nuclei fraction (LOXIMVI): 69.1%

CN1CCN(c2ccc3nc(-c4c(N)c5c(F)cccc5[nH]c4=O)[nH]c3c2)CC1 [Dovitinib] + O=C(Oc1ccc([N+](=O)[O-])cc1)N1CCC(C(O)(c2ccc3c(c2)OCO3)c2ccc3c(c2)OCO3)CC1 [JZL184] (first compound 0.1 µM, partner dose 1 µM)
cleaved PARP positive nuclei fraction (COLO792): 96.7%
cleaved PARP positive nuclei fraction (COLO800): 76.2%
cleaved PARP positive nuclei fraction (COLO829): 103%
cleaved PARP positive nuclei fraction (G361): 247%
cleaved PARP positive nuclei fraction (IPC-298): 88.1%
cleaved PARP positive nuclei fraction (IST-MEL1): 87.3%
cleaved PARP positive nuclei fraction (LB2518-MEL): 70.9%
cleaved PARP positive nuclei fraction (LOXIMVI): 76.9%

Cn1cc(C2=C(c3cn(C4CCN(Cc5ccccn5)CC4)c4ccccc34)C(=O)NC2=O)c2ccccc21 [Enzastaurin] + CC(C)CCN1c2nc(Nc3cc(F)c(O)c(F)c3)ncc2N(C)C(=O)C1C [BID1870] (first compound 0.8 µM, partner dose 0.2 µM)
cleaved PARP positive nuclei fraction (COLO792): 61.4%
cleaved PARP positive nuclei fraction (COLO800): 210%
cleaved PARP positive nuclei fraction (COLO829): 28.1%
cleaved PARP positive nuclei fraction (G361): 99.3%
cleaved PARP positive nuclei fraction (IPC-298): 71.4%
cleaved PARP positive nuclei fraction (IST-MEL1): 129%
cleaved PARP positive nuclei fraction (LB2518-MEL): 86.3%
cleaved PARP positive nuclei fraction (LOXIMVI): 84.2%

C[C@]12O[C@H](C[C@]1(O)CO)n1c3ccccc3c3c4c(c5c6ccccc6n2c5c31)CNC4=O [Lestaurtinib] + CCN(CC)CCCCNc1ncc2cc(-c3cc(OC)cc(OC)c3)c(NC(=O)NC(C)(C)C)nc2n1 [PD173074] (first compound 0.004 µM, partner dose 0.1 µM)
cleaved PARP positive nuclei fraction (COLO792): 51.5%
cleaved PARP positive nuclei fraction (COLO800): 167%
cleaved PARP positive nuclei fraction (COLO829): 77.6%
cleaved PARP positive nuclei fraction (G361): 163%
cleaved PARP positive nuclei fraction (IPC-298): 49.5%
cleaved PARP positive nuclei fraction (IST-MEL1): 107%
cleaved PARP positive nuclei fraction (LB2518-MEL): 64.8%
cleaved PARP positive nuclei fraction (LOXIMVI): 33.6%

CS(=O)(=O)c1ccc(C(=O)Nc2ccc(Cl)c(-c3ccccn3)c2)c(Cl)c1 [vismodegib] + C/C(O)=C(\C#N)C(=O)Nc1cc(Br)ccc1Br [LFM-A13] (first compound 1 µM, partner dose 2 µM)
cleaved PARP positive nuclei fraction (COLO792): 138%
cleaved PARP positive nuclei fraction (COLO800): 97%
cleaved PARP positive nuclei fraction (COLO829): 110%
cleaved PARP positive nuclei fraction (G361): 37.2%
cleaved PARP positive nuclei fraction (IPC-298): 116%
cleaved PARP positive nuclei fraction (IST-MEL1): 152%
cleaved PARP positive nuclei fraction (LB2518-MEL): 65.4%
cleaved PARP positive nuclei fraction (LOXIMVI): 56.5%

C[C@]12O[C@H](C[C@]1(O)CO)n1c3ccccc3c3c4c(c5c6ccccc6n2c5c31)CNC4=O [Lestaurtinib] + Oc1cc(-c2nc(-c3ccccc3)[nH]c2-c2ccncc2)ccc1Cl [L779450] (first compound 0.004 µM, partner dose 0.2 µM)
cleaved PARP positive nuclei fraction (COLO792): 115%
cleaved PARP positive nuclei fraction (COLO800): 65.4%
cleaved PARP positive nuclei fraction (COLO829): 47.7%
cleaved PARP positive nuclei fraction (G361): 162%
cleaved PARP positive nuclei fraction (IPC-298): 57.3%
cleaved PARP positive nuclei fraction (IST-MEL1): 146%
cleaved PARP positive nuclei fraction (LB2518-MEL): 153%
cleaved PARP positive nuclei fraction (LOXIMVI): 231%

N.N.[Cl][Pt][Cl] [cisplatin] + O=C1NC(=O)/C(=C/c2ccc(-c3ccc(F)cc3O)o2)S1 [AS252424] (first compound 1.6 µM, partner dose 1 µM)
cleaved PARP positive nuclei fraction (COLO792): 66.8%
cleaved PARP positive nuclei fraction (COLO800): 183%
cleaved PARP positive nuclei fraction (COLO829): 157%
cleaved PARP positive nuclei fraction (G361): 80.2%
cleaved PARP positive nuclei fraction (IPC-298): 150%
cleaved PARP positive nuclei fraction (IST-MEL1): 190%
cleaved PARP positive nuclei fraction (LB2518-MEL): 102%
cleaved PARP positive nuclei fraction (LOXIMVI): 162%

O=c1[nH]nc(Sc2ncc([N+](=O)[O-])s2)n1-c1ccc2c(c1)OCCO2 + O=C(Oc1ccc([N+](=O)[O-])cc1)N1CCC(C(O)(c2ccc3c(c2)OCO3)c2ccc3c(c2)OCO3)CC1 [JZL184] (first compound 0.2 µM, partner dose 1 µM)
cleaved PARP positive nuclei fraction (COLO792): 151%
cleaved PARP positive nuclei fraction (COLO800): 141%
cleaved PARP positive nuclei fraction (COLO829): 59.9%
cleaved PARP positive nuclei fraction (G361): 113%
cleaved PARP positive nuclei fraction (IPC-298): 185%
cleaved PARP positive nuclei fraction (IST-MEL1): 97.8%
cleaved PARP positive nuclei fraction (LB2518-MEL): 64.2%
cleaved PARP positive nuclei fraction (LOXIMVI): 57.4%
